Assay results as given in PMC8446001.
Results are given in words; binding and its absence hold for the method and conditions named. Binding seen in cells or lysates may run through a third protein. A result given as binding can be weak or reduced; the word gives no strength.

B1: 2HA-MLC1 wild type (megalencephalic leukoencephalopathy with subcortical cysts 1) (protein, UniProt Q15049 1-377)
chain: MTQEPFREELAYDRMPTLERGRQDPASYAPDAKPSDLQLSKRLPPCFSHKTWVFSVLMGSCLLVTSGFSLYLGNVFPAEMDYLRCAAGSCIPSAIVSFTVSRRNANVIPNFQILFVSTFAVTTTCLIWFGCKLVLNPSAININFNLILLLLLELLMAATVIIAARSSEEDCKKKKGSMSDSANILDEVPFPARVLKSYSVVEVIAGISAVLGGIIALNVDDSVSGPHLSVTFFWILVACFPSAIASHVAAECPSKCLVEVLIAISSLTSPLLFTASGYLSFSIMRIVEMFKDYPPAIKPSYDVLLLLLLLVLLLQAGLNTGTAIQCVRFKVSARLQGASWDTQNGPQERLAGEVARSPLKEFDKEKAWRAVVVQMAQ
B2: 2HA-MLC1-P92S (protein, UniProt Q15049 1-377)
chain: MTQEPFREELAYDRMPTLERGRQDPASYAPDAKPSDLQLSKRLPPCFSHKTWVFSVLMGSCLLVTSGFSLYLGNVFPAEMDYLRCAAGSCISSAIVSFTVSRRNANVIPNFQILFVSTFAVTTTCLIWFGCKLVLNPSAININFNLILLLLLELLMAATVIIAARSSEEDCKKKKGSMSDSANILDEVPFPARVLKSYSVVEVIAGISAVLGGIIALNVDDSVSGPHLSVTFFWILVACFPSAIASHVAAECPSKCLVEVLIAISSLTSPLLFTASGYLSFSIMRIVEMFKDYPPAIKPSYDVLLLLLLLVLLLQAGLNTGTAIQCVRFKVSARLQGASWDTQNGPQERLAGEVARSPLKEFDKEKAWRAVVVQMAQ
B3: 2HA-MLC1-C326R (protein, UniProt Q15049 1-377)
chain: MTQEPFREELAYDRMPTLERGRQDPASYAPDAKPSDLQLSKRLPPCFSHKTWVFSVLMGSCLLVTSGFSLYLGNVFPAEMDYLRCAAGSCIPSAIVSFTVSRRNANVIPNFQILFVSTFAVTTTCLIWFGCKLVLNPSAININFNLILLLLLELLMAATVIIAARSSEEDCKKKKGSMSDSANILDEVPFPARVLKSYSVVEVIAGISAVLGGIIALNVDDSVSGPHLSVTFFWILVACFPSAIASHVAAECPSKCLVEVLIAISSLTSPLLFTASGYLSFSIMRIVEMFKDYPPAIKPSYDVLLLLLLLVLLLQAGLNTGTAIQRVRFKVSARLQGASWDTQNGPQERLAGEVARSPLKEFDKEKAWRAVVVQMAQ

The binders below were run against GST-GlialCAMCt (GST fusion protein containing the C-terminal tail of GlialCAM) (assay: pull-down; glutathione-Sepharose bound GST-GCAM incubated with HeLa cell lysates (0.4 mg) expressing MLC1 for 2 h at 4 °C; beads washed; SDS-PAGE and Western blot; GST alone as control; only the target purified).

binding, binds:
B1, B2, B3
